Assay: Comparison of fragment-linker-fragment ligands: ligand efficiency (LE) and linking coefficient (E)
Conditions: FIG. 5 legend

## c1ccc(N2CCNCC2)c(NCc2ccc3nccnc3c2)c1 [Compound 37]
  E value (linking coefficient): 2.5

Reference: patent US20240254107A1, “RNA-TARGETING LIGANDS, COMPOSITIONS THEREOF, AND METHODS OF MAKING AND USING THE SAME” (THE UNIVERSITY OF NORTH CAROLINA AT CHAPEL HILL, priority 2021, published 2024)
